Results as given in paper PMC4293114.
No constants are given. Whether binding was seen depends on the method and setting. Binding seen in cells or lysates may run through a third protein. Some results given as binding are weak or reduced against the parent protein; the word gives no strength.

Protein sequences, listed by entry. Tags and fused reporters are not part of them.
UniProt P83917: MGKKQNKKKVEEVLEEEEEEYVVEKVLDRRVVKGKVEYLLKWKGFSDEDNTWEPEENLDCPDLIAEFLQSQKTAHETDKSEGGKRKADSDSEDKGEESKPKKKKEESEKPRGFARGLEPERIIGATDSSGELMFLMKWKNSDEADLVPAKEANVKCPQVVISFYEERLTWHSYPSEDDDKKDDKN

Biological target: T1, endogenous UBF1/2 (upstream binding factor 1) (mouse (endogenous in mouse embryonic fibroblasts / 3T3 cells)) (UniProt P25976)
T1 sequence: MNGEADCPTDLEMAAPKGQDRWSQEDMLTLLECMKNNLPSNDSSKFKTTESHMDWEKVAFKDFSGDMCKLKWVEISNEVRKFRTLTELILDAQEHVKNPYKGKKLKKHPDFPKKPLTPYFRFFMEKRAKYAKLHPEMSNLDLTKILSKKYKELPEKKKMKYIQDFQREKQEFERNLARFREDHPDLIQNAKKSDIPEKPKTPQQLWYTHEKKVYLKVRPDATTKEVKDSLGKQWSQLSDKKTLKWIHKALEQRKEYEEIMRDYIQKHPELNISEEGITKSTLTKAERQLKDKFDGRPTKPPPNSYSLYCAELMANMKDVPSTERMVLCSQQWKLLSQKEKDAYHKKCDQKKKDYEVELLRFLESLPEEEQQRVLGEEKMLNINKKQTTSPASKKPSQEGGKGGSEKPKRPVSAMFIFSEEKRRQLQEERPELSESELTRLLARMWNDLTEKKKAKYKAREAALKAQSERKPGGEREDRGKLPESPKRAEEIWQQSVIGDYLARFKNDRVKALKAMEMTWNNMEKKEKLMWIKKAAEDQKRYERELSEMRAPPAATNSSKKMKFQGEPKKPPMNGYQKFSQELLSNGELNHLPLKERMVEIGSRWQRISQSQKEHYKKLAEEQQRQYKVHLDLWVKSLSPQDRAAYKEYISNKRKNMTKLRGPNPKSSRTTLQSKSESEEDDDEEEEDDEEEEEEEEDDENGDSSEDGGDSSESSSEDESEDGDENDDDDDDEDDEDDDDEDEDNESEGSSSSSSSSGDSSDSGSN
Experiment: co-IP; lysates of cells overexpressing full-length GFP-HP1β or GFP-HP1β-ΔCSD, immunoprecipitated with anti-UBF1 (H-300), Western blot of HP1β

binding: binds
Substance: full-length GFP-HP1β (from UniProt P83917 1-185)
